The target of assay [1] is T1, OsARF17, two-hybrid fusion (rice (Oryza sativa japonica, ZH11)) (UniProt Q653U3).
T1 sequence: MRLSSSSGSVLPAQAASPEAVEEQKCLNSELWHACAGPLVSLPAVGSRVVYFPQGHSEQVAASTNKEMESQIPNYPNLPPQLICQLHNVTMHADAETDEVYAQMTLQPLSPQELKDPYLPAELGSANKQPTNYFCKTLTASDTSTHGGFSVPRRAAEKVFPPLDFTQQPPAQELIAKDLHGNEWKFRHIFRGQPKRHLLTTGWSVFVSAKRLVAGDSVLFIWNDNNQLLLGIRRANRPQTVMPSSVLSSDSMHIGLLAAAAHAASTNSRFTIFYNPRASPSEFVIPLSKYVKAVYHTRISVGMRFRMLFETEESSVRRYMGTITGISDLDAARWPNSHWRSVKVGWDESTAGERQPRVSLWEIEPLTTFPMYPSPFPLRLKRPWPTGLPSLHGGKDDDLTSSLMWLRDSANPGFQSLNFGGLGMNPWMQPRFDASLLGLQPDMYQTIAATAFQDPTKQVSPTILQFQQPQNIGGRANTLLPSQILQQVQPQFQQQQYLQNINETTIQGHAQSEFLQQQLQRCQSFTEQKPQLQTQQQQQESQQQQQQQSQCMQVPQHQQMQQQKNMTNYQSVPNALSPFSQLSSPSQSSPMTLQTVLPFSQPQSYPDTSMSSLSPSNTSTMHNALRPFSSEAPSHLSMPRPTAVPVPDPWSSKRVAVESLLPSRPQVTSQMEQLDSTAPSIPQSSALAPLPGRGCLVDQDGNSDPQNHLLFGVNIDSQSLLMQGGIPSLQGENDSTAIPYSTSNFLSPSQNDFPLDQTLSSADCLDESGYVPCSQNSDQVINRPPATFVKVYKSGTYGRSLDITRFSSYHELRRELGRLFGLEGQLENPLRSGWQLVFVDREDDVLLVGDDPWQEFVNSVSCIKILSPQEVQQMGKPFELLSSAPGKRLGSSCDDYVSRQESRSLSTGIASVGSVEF
The assay can be described thus: two-hybrid; constructs in pGADT7 and pGBKT7 co-transformed into yeast AH109; transformants diluted 10^1, 10^2, 10^3 times, grown on SD -Leu/-Trp/-His/-Ade for 4 days.

Assay [2] concerns the target T2, C-terminal YFP fused OsARF17 (OsARF17-cYFP) (rice (Oryza sativa japonica, ZH11)) (UniProt Q653U3).
T2 sequence: T1 sequence
Briefly: split reporter; split-YFP; nYFP-OsIAA12 and OsARF17-cYFP expressed in N. benthamiana leaves by Agrobacterium infiltration, YFP fluorescence observed by confocal microscopy after 48 h.

These are yes or no findings as the source states them, for the method shown. For some assays here: In cells and extracts the contact can be indirect. Some results given as binding are weak or reduced against the parent protein; the word gives no strength. Where a sequence is shown, tags or fusion partners need not be part of it.

B1: OsIAA12, two-hybrid fusion (protein, UniProt Q75GK1 1-226)
chain: MEAAVGYAADSLIKATELRLGLPGTADDLPSTPRGKKRAAAAEDNNANAAAADDDEHDAVEAAPPVAKAQVVGWPPVRSYRKSCFQQQSAAASKSKAAVSSCNNKDEPITKNAAPAPAASSAAAANGGSLVKVSMDGAPYLRKIDLRMYKGYRELREALEAMFVCFSGAADGANPSEFAITYQDKDGDLMLVGDVPFDMFTSTCKKLRIMKRSEATGLGSPRQMKI
As for B1, in assay [1], the binding entry was “binds”.

B2: N-terminal YFP fused OsIAA12 (nYFP-OsIAA12) (protein, UniProt Q75GK1 1-226)
chain: B1 chain
As for B2, the binding result in assay [2] was “binds”.

Source of the values: PMC6289470.
